In the RNAGym collection of RNA variant scans (doi:10.1126/science.aae0568) one finds yeast fitness data, which are given here for 83 variants.

Variants at the floor of the assay are shown more often than the library holds them. Some results are limits rather than exact numbers.

B1: tRNA (parent)
chain: GUUCCGUUGGCGUAAUGGUAACGCGUCUCCCUCCUAAGGAGAAGACUGCGGGUUCGAGUCCCGUACGGAACG

Variants of B1 are the subject of the data set. Nature of the data set: yeast fitness relative to wild type (ratio to wild type); higher = fitter; tRNA-Arg(CCU), competitive growth, 37 C, YPD. The gist of the method: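 Genotype frequency changes were the basis for Darwinian fitness relative to wild type. The frequencies came from 100-nucleotide paired-end sequencing of gene amplicons from the start population and each end population of pooled yeast strains with tRNA-Arg(CCU) gene variants at the native locus. Competition ran in YPD at 37°C for 24 hours in six replicates, genotypes needed ≥ 100 starting reads, and estimates < 0.5 were set to 0.5.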
Take G10C C27U C30U: the yeast fitness was at most 0.5.
Regarding C11U C22U C30A A42C G58A, the yeast fitness was at most 0.5.
Under C4G C5U C29A C46G stands at most 0.5; under A37C A42C G44A U54A, at most 0.5.
For A14G A40C C62G, the yeast fitness was at most 0.5.
To U3C C11A C27G C33A A43C C46A U64C belongs at most 0.5; to U13A C29A C31G C55G C66A, at most 0.5; to U3C U16A G23C C29U G58A, at most 0.5.
For the variant G10A A14C A20G U26G C31G C34G A42U A43C G50C, the yeast fitness was at most 0.5.
For the variant C4G C29A C66U, the yeast fitness is at most 0.5.
To C34G A57G G63C belongs at most 0.5.
Under U26A C27U G56C G68A A70U stands at most 0.5; under U3C G9A C24U C55G, at most 0.5; under U2G C5A A43U C55U, at most 0.5.
Under G25C U26G C46G G51A A70U stands at most 0.5; under C4G A21G C34U G44C C55G, at most 0.5; under A14C C24A C61A, at most 0.5.
As to C4A C11G, the yeast fitness worked out at 0.769.
Under U8G C22G C24G C30G A36G stands at most 0.5; under U7A C11A C27G, at most 0.5.
Take C5U C11G A36U: the yeast fitness was at most 0.5.
With G12A G17C A65U, the yeast fitness was at most 0.5.
To U2A A40U G48A A65C belongs at most 0.5; to C11U U19C A20U A42C A65C A69U, at most 0.5.
Under A40G A43U G50C A69U stands at most 0.5; under G6A C29A C31G A69U, at most 0.5.
To U3A C22A C33G U35A C55U belongs at most 0.5; to U3G C22G C29A G63C, at most 0.5; to U2A C27U U32C G39C, at most 0.5.
Consider U13A A40C C60G, for which the yeast fitness is at most 0.5.
In the case of C5G U16C C22G C34U U59A, the yeast fitness was at most 0.5.
Under U2A U32C C60G stands at most 0.5.
To U8G C49G U53C C60A belongs at most 0.5; to A37C G51A, 0.605; to U3C A14U A40G A57G A65G, at most 0.5.
Under U3A G23C C46U stands at most 0.5; under G9A U16C U19G C27A C33U U53C, at most 0.5.
Consider C30G G52C G58U, for which the yeast fitness is at most 0.5.
To C11G G58C C62U belongs at most 0.5.
Consider A21U A45U G50C U64G, for which the yeast fitness is at most 0.5.
As for G10A G39A U64C, the yeast fitness is at most 0.5.
Consider C27A A57G G63A, for which the yeast fitness was 0.551.
To C30G A36U A70U belongs at most 0.5; to C4A A20G C29U C31A A40G U47A, at most 0.5; to U16C C29G C49U C60A C61A, at most 0.5.
Turning to C29U C30U G63A, the yeast fitness stood at 0.514.
Consider A14U C29U A37U C66U, for which the yeast fitness is at most 0.5.
As for U3A C11U U13A G17C G18C A36C, the yeast fitness was at most 0.5.
Take G6A C49U: the yeast fitness was determined as 0.959.
To A21G C22U A45U C49U U64A belongs at most 0.5; to C11G A21C C30U, at most 0.5.
Under G10A C11G C30G A57G G58A U59A stands at most 0.5; under C34U G38C C55A, at most 0.5.
In the case of U2A A20G G58C, the yeast fitness was found to be 0.973.
For the variant C11A C29U A43C A65U, the yeast fitness was at most 0.5.
To A20U C29A belongs 0.797; to A14U A21C C22U C33G A45G C46G, at most 0.5; to C4G U7C A43U, at most 0.5.
As for C24A U32C G39C A70C, the yeast fitness is at most 0.5.
Under A15U A69C stands 0.77; under U3C U8A A15C, at most 0.5; under U47A U53C, 0.7.
In the case of U13G G18C U47G A69C, the yeast fitness is at most 0.5.
As for C4U U8C, the yeast fitness turned out to be 0.942.
Under C4A C24U G50A A65U stands at most 0.5; under U7G C31A C55U G63A, at most 0.5; under C24A G39C U47C U59C, at most 0.5.
To C61A A65U belongs 0.604.
Under G10A A42G G67A stands at most 0.5; under U2G C30U U32C A40G A70G, at most 0.5; under C24U C34A, 0.783.
Turning to C4G G23C G58A, the yeast fitness is at most 0.5.
As to C11U A21G C33A A65C A70C, the yeast fitness is at most 0.5.
Under C4G C11U C22G A40U A43G G48C G51C A57G C61G stands at most 0.5; under G6A G17A U32C, at most 0.5; under C24A G48C U54G C55U C66U, at most 0.5.
Consider U54A G63A G68C, for which the yeast fitness is at most 0.5.
As for C5G A21C A43U, the yeast fitness is at most 0.5.
A45G A65G: the yeast fitness came to 1.04.
Under U53A A70C stands 0.769; under C34A C46U, 0.615; under C22G C33G G51A C55G, at most 0.5.
On to U7A C11A G18A C31U C34U G51C G56C, for which the yeast fitness was at most 0.5.
